Reference: PMC11508090

Legend:
Assay in all cases: proximity labelling; eleven TurboID fusion strains (ndt80, homozygous) and a no-TurboID control, ~24 h sporulation, two replicates; TCA extract, streptavidin-sepharose pull-down, trypsin, UPLC-MS/MS; targets = in both replicates and in neither control
[1] = molecular target: T1, Msh5-TurboID (S. cerevisiae) (UniProt Q12175)
T1 sequence: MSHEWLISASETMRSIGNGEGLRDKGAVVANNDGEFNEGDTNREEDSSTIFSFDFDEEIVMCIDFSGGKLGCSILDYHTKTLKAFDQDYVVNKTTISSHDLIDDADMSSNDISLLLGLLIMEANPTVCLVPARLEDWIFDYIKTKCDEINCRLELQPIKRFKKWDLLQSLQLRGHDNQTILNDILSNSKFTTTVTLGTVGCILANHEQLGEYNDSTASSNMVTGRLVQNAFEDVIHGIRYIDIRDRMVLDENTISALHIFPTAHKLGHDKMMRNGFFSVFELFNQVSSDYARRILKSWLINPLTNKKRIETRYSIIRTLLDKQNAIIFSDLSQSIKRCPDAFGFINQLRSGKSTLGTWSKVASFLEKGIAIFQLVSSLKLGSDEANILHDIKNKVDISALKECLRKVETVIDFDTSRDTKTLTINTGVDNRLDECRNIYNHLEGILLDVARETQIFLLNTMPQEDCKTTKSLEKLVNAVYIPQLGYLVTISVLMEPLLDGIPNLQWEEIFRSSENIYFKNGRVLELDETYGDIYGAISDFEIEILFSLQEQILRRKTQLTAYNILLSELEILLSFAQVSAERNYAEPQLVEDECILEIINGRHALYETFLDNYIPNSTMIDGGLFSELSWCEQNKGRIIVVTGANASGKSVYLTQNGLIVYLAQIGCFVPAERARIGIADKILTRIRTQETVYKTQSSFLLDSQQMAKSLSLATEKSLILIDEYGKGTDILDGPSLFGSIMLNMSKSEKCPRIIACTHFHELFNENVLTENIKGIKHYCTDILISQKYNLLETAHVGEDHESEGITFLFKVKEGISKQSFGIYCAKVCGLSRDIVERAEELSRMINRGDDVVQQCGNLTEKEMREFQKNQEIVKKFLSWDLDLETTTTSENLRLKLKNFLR

[2] = molecular target: T2, Zip2-TurboID (S. cerevisiae) (UniProt P53061)
T2 sequence: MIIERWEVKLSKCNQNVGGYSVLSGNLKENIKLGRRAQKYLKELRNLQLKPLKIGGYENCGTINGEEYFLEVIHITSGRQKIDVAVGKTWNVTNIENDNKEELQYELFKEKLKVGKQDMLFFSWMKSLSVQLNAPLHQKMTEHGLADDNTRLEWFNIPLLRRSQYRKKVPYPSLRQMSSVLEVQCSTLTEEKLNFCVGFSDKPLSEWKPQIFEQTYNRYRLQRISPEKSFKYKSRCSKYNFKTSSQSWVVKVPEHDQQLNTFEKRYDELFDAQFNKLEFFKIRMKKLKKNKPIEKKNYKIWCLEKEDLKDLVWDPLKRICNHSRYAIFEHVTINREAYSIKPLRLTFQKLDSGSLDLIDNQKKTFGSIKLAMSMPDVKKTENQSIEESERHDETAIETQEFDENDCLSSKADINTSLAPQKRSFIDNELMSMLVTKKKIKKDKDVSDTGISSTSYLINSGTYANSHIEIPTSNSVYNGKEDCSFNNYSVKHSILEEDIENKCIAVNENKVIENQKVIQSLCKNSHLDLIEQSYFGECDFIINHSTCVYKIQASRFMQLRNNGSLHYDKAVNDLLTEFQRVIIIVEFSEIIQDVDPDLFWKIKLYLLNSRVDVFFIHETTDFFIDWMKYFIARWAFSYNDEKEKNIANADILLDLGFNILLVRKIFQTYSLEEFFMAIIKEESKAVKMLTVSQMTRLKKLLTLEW

[3] = molecular target: T3, Zip3iTurboID (S. cerevisiae) (UniProt Q06032)
T3 sequence: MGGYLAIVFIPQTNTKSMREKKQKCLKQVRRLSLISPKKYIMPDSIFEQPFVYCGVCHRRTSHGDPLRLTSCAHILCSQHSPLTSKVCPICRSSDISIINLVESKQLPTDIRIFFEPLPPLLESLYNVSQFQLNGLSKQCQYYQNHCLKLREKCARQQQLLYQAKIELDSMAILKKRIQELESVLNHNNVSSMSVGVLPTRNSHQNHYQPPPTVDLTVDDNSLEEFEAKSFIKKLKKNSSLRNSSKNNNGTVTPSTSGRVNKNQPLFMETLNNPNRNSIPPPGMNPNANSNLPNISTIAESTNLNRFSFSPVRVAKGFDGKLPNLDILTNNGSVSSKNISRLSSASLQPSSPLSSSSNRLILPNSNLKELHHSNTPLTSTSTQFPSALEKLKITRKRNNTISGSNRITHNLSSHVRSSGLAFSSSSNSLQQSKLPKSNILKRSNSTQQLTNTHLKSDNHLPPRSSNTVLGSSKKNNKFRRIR

Measured: binding

Zip4 (S. cerevisiae)
no binding: all assays above

These are yes or no findings as the source states them, for the method shown. In cells and extracts the contact can be indirect. These calls come from enrichment with a bait or labelling near it, and not all partners need be listed. A no says only that the protein was not detected with the bait.
